Taken from: PubChem BioAssay AID1259405 (NCATS, 2018)

Purpose: 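Knock-downs that lift recombinant protein yield in hamster ovary cells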 (primary screen)
Cells: Chinese hamster CHO-K1 ovary cells with stable secreted eGFP expression
Reagents: single siRNA against mouse genes, 0.8 pmol siRNA per well (2 µl of 400 nM stock)
Time to read-out: 3 days
Detection: 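Per-well intracellular GFP measured by laser scanning cytometry, plus viability from ATP luminescence, each relative to plate median of non-targeting control wells, in %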
Reading the numbers: GFP, % of control: higher = more GFP per well, higher productivity; viability (ATP), % of control: higher = more viable cells (more ATP)
Hit rule: 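a knock-down is called active if GFP reaches 120% or more of non-targeting control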
This is a random part of about 50,000 reagents tested. Of all reagents, about 4,000 (8%) were called active. 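Mouse siRNA library applied to hamster cells; one well for each siRNA.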 Reagents against one gene are numbered here. No sequences are given here.

With Smim48 (small integral membrane protein 48) #1, what was measured?
GFP, % of control: 101; viability (ATP), % of control: 59.3; Call: inactive

For Smim48 (small integral membrane protein 48) #2, what was measured?
GFP, % of control: 94.2; viability (ATP), % of control: 91.9; Call: inactive

How did the screen score Smim48 (small integral membrane protein 48) #3?
GFP, % of control: 97.1; viability (ATP), % of control: 73.3; Call: inactive

What did the screen give for Hyou1 (hypoxia up-regulated 1) #1?
GFP, % of control: 72.6; viability (ATP), % of control: 69.1; Call: inactive

For Hyou1 (hypoxia up-regulated 1) #2, how do the results read?
GFP, % of control: 69.9; viability (ATP), % of control: 62.6; Call: inactive

What is on record for Hyou1 (hypoxia up-regulated 1) #3?
GFP, % of control: 86.9; viability (ATP), % of control: 93.2; Call: inactive

With Glipr1l2 (GLI pathogenesis-related 1 like 2) #1, what was measured?
GFP, % of control: 87.1; viability (ATP), % of control: 89.3; Call: inactive

What did the screen give for Glipr1l2 (GLI pathogenesis-related 1 like 2) #2?
GFP, % of control: 82.6; viability (ATP), % of control: 52.2; Call: inactive

With Glipr1l2 (GLI pathogenesis-related 1 like 2) #3, how do the results read?
GFP, % of control: 93.8; viability (ATP), % of control: 97.9; Call: inactive

For Or51a8 (olfactory receptor family 51 subfamily A member 8) #1, what was measured?
GFP, % of control: 18.3; viability (ATP), % of control: 40.3; Call: inactive

With Or51a8 (olfactory receptor family 51 subfamily A member 8) #2, what does the deposit list?
GFP, % of control: 89.8; viability (ATP), % of control: 86.4; Call: inactive

For Or51a8 (olfactory receptor family 51 subfamily A member 8) #3, what does the deposit list?
GFP, % of control: 79.9; viability (ATP), % of control: 63.8; Call: inactive

What did the screen give for Vmn1r206 (vomeronasal 1 receptor 206) #1?
GFP, % of control: 64.3; viability (ATP), % of control: 33.6; Call: inactive

For Vmn1r206 (vomeronasal 1 receptor 206) #2, how do the results read?
GFP, % of control: 92.8; viability (ATP), % of control: 74.6; Call: inactive

How did the screen score Vmn1r206 (vomeronasal 1 receptor 206) #3?
GFP, % of control: 68.3; viability (ATP), % of control: 95.3; Call: inactive

With Atp11a (ATPase, class VI, type 11A) #1, how do the results read?
GFP, % of control: 53.5; viability (ATP), % of control: 40.7; Call: inactive

What is on record for Atp11a (ATPase, class VI, type 11A) #2?
GFP, % of control: 31.7; viability (ATP), % of control: 61.1; Call: inactive

With Atp11a (ATPase, class VI, type 11A) #3, how do the results read?
GFP, % of control: 43; viability (ATP), % of control: 63.4; Call: inactive

What did the screen give for Paqr5 (progestin and adipoQ receptor family member V) #1?
GFP, % of control: 76.7; viability (ATP), % of control: 110; Call: inactive

What did the screen give for Paqr5 (progestin and adipoQ receptor family member V) #2?
GFP, % of control: 52.7; viability (ATP), % of control: 62.5; Call: inactive

Which result is listed for Paqr5 (progestin and adipoQ receptor family member V) #3?
GFP, % of control: 96.7; viability (ATP), % of control: 99.3; Call: inactive

What did the screen give for Rasgef1b (RasGEF domain family, member 1B) #1?
GFP, % of control: 87.9; viability (ATP), % of control: 70; Call: inactive

With Rasgef1b (RasGEF domain family, member 1B) #2, what was measured?
GFP, % of control: 95.7; viability (ATP), % of control: 90.7; Call: inactive

What is on record for Rasgef1b (RasGEF domain family, member 1B) #3?
GFP, % of control: 61.9; viability (ATP), % of control: 80.1; Call: inactive

What did the screen give for Klhl30 (kelch-like 30) #1?
GFP, % of control: 78.1; viability (ATP), % of control: 53.9; Call: inactive

What is on record for Klhl30 (kelch-like 30) #2?
GFP, % of control: 38.8; viability (ATP), % of control: 49.8; Call: inactive

With Klhl30 (kelch-like 30) #3, what was measured?
GFP, % of control: 82.7; viability (ATP), % of control: 101; Call: inactive

How did the screen score Mgat5b (mannoside acetylglucosaminyltransferase 5, isoenzyme B) #1?
GFP, % of control: 115; viability (ATP), % of control: 85.4; Call: inactive

With Mgat5b (mannoside acetylglucosaminyltransferase 5, isoenzyme B) #2, what does the deposit list?
GFP, % of control: 148; viability (ATP), % of control: 93.4; Call: active

Which result is listed for Mgat5b (mannoside acetylglucosaminyltransferase 5, isoenzyme B) #3?
GFP, % of control: 69.8; viability (ATP), % of control: 62; Call: inactive

What did the screen give for Lrrc19 (leucine rich repeat containing 19) #1?
GFP, % of control: 26.1; viability (ATP), % of control: 20.2; Call: inactive

What did the screen give for Lrrc19 (leucine rich repeat containing 19) #2?
GFP, % of control: 68.5; viability (ATP), % of control: 78.1; Call: inactive

What is on record for Lrrc19 (leucine rich repeat containing 19) #3?
GFP, % of control: 67.5; viability (ATP), % of control: 68.6; Call: inactive

What is on record for Nipsnap3b (nipsnap homolog 3B) #1?
GFP, % of control: 76.1; viability (ATP), % of control: 75.4; Call: inactive

For Nipsnap3b (nipsnap homolog 3B) #2, what does the deposit list?
GFP, % of control: 100; viability (ATP), % of control: 75.9; Call: inactive

What did the screen give for Nipsnap3b (nipsnap homolog 3B) #3?
GFP, % of control: 109; viability (ATP), % of control: 78; Call: inactive

For Nrxn2 (neurexin II) #1, how do the results read?
GFP, % of control: 69.8; viability (ATP), % of control: 89.7; Call: inactive

What is on record for Nrxn2 (neurexin II) #2?
GFP, % of control: 72.5; viability (ATP), % of control: 96.7; Call: inactive

How did the screen score Nrxn2 (neurexin II) #3?
GFP, % of control: 86.6; viability (ATP), % of control: 89.6; Call: inactive

Which result is listed for Mknk2 (MAP kinase-interacting serine/threonine kinase 2) #1?
GFP, % of control: 42.9; viability (ATP), % of control: 25.4; Call: inactive

What did the screen give for Mknk2 (MAP kinase-interacting serine/threonine kinase 2) #2?
GFP, % of control: 58.4; viability (ATP), % of control: 74.4; Call: inactive

For Mknk2 (MAP kinase-interacting serine/threonine kinase 2) #3, what does the deposit list?
GFP, % of control: 72.5; viability (ATP), % of control: 73.2; Call: inactive

4 consecutive entries already listed:
Vmn1r206 (vomeronasal 1 receptor 206) #1 — GFP, % of control: 64.3; viability (ATP), % of control: 33.6; Call: inactive
Vmn1r206 (vomeronasal 1 receptor 206) #2 — GFP, % of control: 92.8; viability (ATP), % of control: 74.6; Call: inactive
Vmn1r206 (vomeronasal 1 receptor 206) #3 — GFP, % of control: 68.3; viability (ATP), % of control: 95.3; Call: inactive
Atp11a (ATPase, class VI, type 11A) #1 — GFP, % of control: 53.5; viability (ATP), % of control: 40.7; Call: inactive
